The values that follow come from PMC11066007, “CORVET-specific subunit levels determine the balance between HOPS/CORVET endosomal tethering complexes” (Scientific Reports, 2024).

In one assay the target is T1, Tgfbrap1-FLAG (human, UniProt Q8WUH2 1-860).
T1 construct: Tgfbrap1, human, CORVET-specific subunit; DNA region encoding the full-length protein fused with a FLAG tag; also called CORVET-specific Tgfbrap1; not shown: FLAG, C-terminal, kept
T1 sequence (looked up): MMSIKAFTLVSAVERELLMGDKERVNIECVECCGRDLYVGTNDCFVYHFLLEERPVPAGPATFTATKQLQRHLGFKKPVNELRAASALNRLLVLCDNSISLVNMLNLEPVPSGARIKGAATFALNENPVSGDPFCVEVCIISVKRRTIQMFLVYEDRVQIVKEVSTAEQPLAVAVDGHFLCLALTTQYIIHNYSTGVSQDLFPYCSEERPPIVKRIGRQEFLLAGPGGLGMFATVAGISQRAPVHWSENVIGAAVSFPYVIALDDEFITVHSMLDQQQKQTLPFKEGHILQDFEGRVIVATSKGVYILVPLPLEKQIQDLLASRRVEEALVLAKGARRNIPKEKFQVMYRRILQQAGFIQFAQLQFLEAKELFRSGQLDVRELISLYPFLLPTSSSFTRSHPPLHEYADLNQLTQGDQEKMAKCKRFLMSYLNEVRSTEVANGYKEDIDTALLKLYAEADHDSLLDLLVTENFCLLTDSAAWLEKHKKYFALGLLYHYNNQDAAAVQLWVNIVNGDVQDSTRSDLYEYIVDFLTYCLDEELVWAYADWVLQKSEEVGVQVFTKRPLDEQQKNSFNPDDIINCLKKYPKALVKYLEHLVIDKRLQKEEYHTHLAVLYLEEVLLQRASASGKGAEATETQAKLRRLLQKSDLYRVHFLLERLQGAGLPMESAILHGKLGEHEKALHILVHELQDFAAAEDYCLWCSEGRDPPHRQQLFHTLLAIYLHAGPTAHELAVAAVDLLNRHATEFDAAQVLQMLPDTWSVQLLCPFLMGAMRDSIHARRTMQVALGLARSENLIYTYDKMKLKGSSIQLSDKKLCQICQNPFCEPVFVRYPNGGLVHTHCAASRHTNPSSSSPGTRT
Briefly: co-IP; anti-FLAG beads on lysates of HEK293 cells overexpressing a FLAG-tagged subunit together with untagged VPS8 or VPS41-HA; eluates analysed by western blot; lysis buffer 50 mM TRIS-HCl pH 7.5, 150 mM NaCl, 1% Triton X-100, 5 mM EDTA; 1.5 h at 4 °C. In general terms: A western blot detects proteins with antibodies after separation by electrophoresis.

Another assay has as its target T2, VPS39-FLAG (human, UniProt Q96JC1 1-886).
T2 construct: VPS39, human, HOPS-specific subunit; DNA region encoding the full-length protein fused with a FLAG tag; also called HOPS-specific VPS39; not shown: FLAG, N-terminal, kept
T2 sequence (looked up): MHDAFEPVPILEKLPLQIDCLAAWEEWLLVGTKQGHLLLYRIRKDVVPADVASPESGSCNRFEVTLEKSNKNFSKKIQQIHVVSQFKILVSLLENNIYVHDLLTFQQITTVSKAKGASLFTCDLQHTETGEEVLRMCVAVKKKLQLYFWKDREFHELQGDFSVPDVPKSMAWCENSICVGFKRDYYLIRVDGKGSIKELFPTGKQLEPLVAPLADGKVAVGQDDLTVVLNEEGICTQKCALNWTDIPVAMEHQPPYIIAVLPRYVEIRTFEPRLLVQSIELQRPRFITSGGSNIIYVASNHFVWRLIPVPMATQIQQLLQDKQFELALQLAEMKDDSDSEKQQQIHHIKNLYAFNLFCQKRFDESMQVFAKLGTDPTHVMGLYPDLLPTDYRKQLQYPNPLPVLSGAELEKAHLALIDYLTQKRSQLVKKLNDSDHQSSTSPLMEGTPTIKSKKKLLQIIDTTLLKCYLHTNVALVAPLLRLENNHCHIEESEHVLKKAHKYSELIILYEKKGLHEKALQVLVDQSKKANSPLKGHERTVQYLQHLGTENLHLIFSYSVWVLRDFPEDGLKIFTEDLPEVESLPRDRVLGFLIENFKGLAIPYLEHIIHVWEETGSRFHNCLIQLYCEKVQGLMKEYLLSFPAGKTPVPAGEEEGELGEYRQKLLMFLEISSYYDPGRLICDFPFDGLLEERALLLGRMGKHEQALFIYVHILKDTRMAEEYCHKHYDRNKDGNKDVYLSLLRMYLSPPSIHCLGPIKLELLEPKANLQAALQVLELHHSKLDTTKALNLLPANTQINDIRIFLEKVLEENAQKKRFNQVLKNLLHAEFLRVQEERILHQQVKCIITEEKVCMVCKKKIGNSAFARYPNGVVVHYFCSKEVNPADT
Described as above.

Results are given in words; binding and its absence hold for the method and conditions named. Binding seen in cells or lysates may run through a third protein. Some results given as binding are weak or reduced against the parent protein; the word gives no strength. Tags and fused reporters may be left off the sequences shown.

B1: VPS8 (untagged) (protein, UniProt Q8N3P4 1-1428)
chain: MENEPDHENVEQSLCAKTSEEELNKSFNLEASLSKFSYIDMDKELEFKNDLIDDKEFDIPQVDTPPTLESILNETDDEDESFILEDPTLLNIDTIDSHSYDTSSVASSDSGDRTNLKRKKKLPDSFSLHGSVMRHSLLKGISAQIVSAADKVDAGLPTAIAVSSLIAVGTSHGLALIFGKDQNQALRLCLGSTSVGGQYGAISALSINNDCSRLLCGFAKGQITMWDLASGKLLRSITDAHPPGTAILHIKFTDDPTLAICNDSGGSVFELTFKRVMGVRTCESRCLFSGSKGEVCCIEPLHSKPELKDHPITQFSLLAMASLTKILVIGLKPSLKVWMTFPYGRMDPSSVPLLAWHFVAVQNYVNPMLAFCRGDVVHFLLVKRDESGAIHVTKQKHLHLYYDLINFTWINSRTVVLLDSVEKLHVIDRQTQEELETVEISEVQLVYNSSHFKSLATGGNVSQALALVGEKACYQSISSYGGQIFYLGTKSVYVMMLRSWRERVDHLLKQDCLTEALALAWSFHEGKAKAVVGLSGDASKRKAIVADRMVEILFHYADRALKKCPDQGKIQVMEQHFQDMVPVIVDYCLLLQRKDLLFSQMYDKLSENSVAKGVFLECLEPYILSDKLVGITPQVMKDLIVHFQDKKLMENVEALIVHMDITSLDIQQVVLMCWENRLYDAMIYVYNRGMNEFISPMEKLFRVIAPPLNAGKTLTDEQVVMGNKLLVYISCCLAGRAYPLGDIPEDLVPLVKNQVFEFLIRLHSAEASPEEEIYPYIRTLLHFDTREFLNVLALTFEDFKNDKQAVEYQQRIVDILLKVMVENSDFTPSQVGCLFTFLARQLAKPDNTLFVNRTLFDQVLEFLCSPDDDSRHSERQQVLLELLQAGGIVQFEESRLIRMAEKAEFYQICEFMYEREHQYDKIIDCYLRDPLREEEVFNYIHNILSIPGHSAEEKQSVWQKAMDHIEELVSLKPCKAAELVATHFSGHIETVIKKLQNQVLLFKFLRSLLDPREGIHVNQELLQISPCITEQFIELLCQFNPTQVIETLQVLECYRLEETIQITQKYQLHEVTAYLLEKKGDIHGAFLIMLERLQSKLQEVTHQGENTKEDPSLKDVEDTMVETIALCQRNSHNLNQQQREALWFPLLEAMMAPQKLSSSAIPHLHSEALKSLTMQVLNSMAAFIALPSILQRILQDPVYGKGKLGEIQGLILGMLDTFNYEQTLLETTTSLLNQDLHWSLCNLRASVTRGLNPKQDYCSICLQQYKRRQEMADEIIVFSCGHLYHSFCLQNKECTVEFEGQTRWTCYKCSSSNKVGKLSENSSEIKKGRITPSQVKMSPSYHQSKGDPTAKKGTSEPVLDPQQIQAFDQLCRLYRGSSRLALLTELSQNRSSESYRPFSGSQSAPAFNSIFQNENFQLQLIPPPVTED
Turning to B1, the binding result with Tgfbrap1-FLAG and with VPS39-FLAG was “binds” each time.
